## Cleaved PARP after 72 h of treatment

Compounds and concentrations:
embelin (6 µM): CCCCCCCCCCCC1=C(O)C(=O)C=C(O)C1=O
KU-0063794 (0.1 µM): COc1ccc(-c2ccc3c(N4CCOCC4)nc(N4C[C@@H](C)O[C@@H](C)C4)nc3n2)cc1CO
lenalidomide (5 µM): Nc1cccc2c1CN(C1CCC(=O)NC1=O)C2=O (configuration not stated)
dasatinib (0.02 µM): Cc1nc(Nc2ncc(C(=O)Nc3c(C)cccc3Cl)s2)cc(N2CCN(CCO)CC2)n1
A-769662 (10 µM): N#Cc1c(O)c2c(-c3ccc(-c4ccccc4O)cc3)csc2[nH]c1=O
tanespimycin (0.01 µM): C=CCNC1=C2C[C@@H](C)C[C@H](OC)[C@H](O)[C@@H](C)/C=C(\C)[C@H](OC(N)=O)[C@@H](OC)/C=C\C=C(/C)C(=O)NC(=CC1=O)C2=O
lestaurtinib (0.02 µM): C[C@]12O[C@H](C[C@]1(O)CO)n1c3ccccc3c3c4c(c5c6ccccc6n2c5c31)CNC4=O
STA-4783 (0.03 µM): CN(NC(=O)CC(=O)NN(C)C(=S)c1ccccc1)C(=S)c1ccccc1

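The test systems are human melanoma cell lines, treated with a pair of drugs for 72 h and then stained and imaged. Each value is the cleaved-PARP-positive fraction of nuclei relative to DMSO-treated wells, in %, so that 100 equals the control and higher values mean more apoptosis. Concentrations were fixed for each drug; these are the higher of two levels. These are primary screening values without error estimates. Basal and induced levels differ widely between cell lines.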 This is part of the screen, not chosen by result. A dash means that no value is listed here.

Pair	COLO 829	RPMI-7951	COLO 792	WM1745	SK-MEL-30	SK-MEL-28	RVH-421	MZ2-MEL
tanespimycin + KU-0063794	174	398	151	-	104	204	48.3	-
embelin + A-769662	56.3	69.1	85.6	93.6	47.8	78.3	78.9	45.8
lestaurtinib + dasatinib	77.2	268	400	243	46.8	41.4	159	-
embelin + dasatinib	133	540	228	224	146	176	774	196
embelin + lenalidomide	66.2	161	164	136	166	99.5	109	54.6
tanespimycin + embelin	114	1630	57.2	-	137	56.4	338	189
STA-4783 + A-769662	193	56.7	973	864	56.5	630	45.7	-
dasatinib + STA-4783	941	122	2190	369	73.1	598	130	170
A-769662 + tanespimycin	153	330	119	-	126	230	111	133
embelin + lestaurtinib	124	68.3	270	-	74.2	56.2	130	89.5
lenalidomide + dasatinib	275	276	211	266	79.3	56.6	74.4	199
STA-4783 + embelin	106	81.9	2390	598	149	109	218	116
embelin + KU-0063794	175	150	147	184	96.8	124	65.6	144
tanespimycin + lenalidomide	182	615	97.4	125	147	197	130	59.5
KU-0063794 + lestaurtinib	113	136	169	-	175	174	100	82.2
dasatinib + KU-0063794	326	339	777	337	153	251	92.3	206
STA-4783 + lenalidomide	430	160	1600	260	89.5	209	143	30.3
lenalidomide + lestaurtinib	171	83.4	105	86.0	114	34.4	110	207
dasatinib + tanespimycin	262	373	261	760	162	92.3	137	337
lenalidomide + KU-0063794	110	96.3	240	140	121	185	131	47.1
A-769662 + lenalidomide	255	76.1	72.5	107	93.7	116	55.2	65.9
KU-0063794 + STA-4783	288	71.4	208	391	127	68.0	150	32.6
STA-4783 + lestaurtinib	169	40.8	1180	303	111	148	177	185

Once more, the final 2:

Pair,COLO 829,RPMI-7951,COLO 792,WM1745,SK-MEL-30,SK-MEL-28,RVH-421,MZ2-MEL
KU-0063794 + STA-4783,288,71.4,208,391,127,68.0,150,32.6
STA-4783 + lestaurtinib,169,40.8,1180,303,111,148,177,185

From a melanoma drug combination screen (doi:10.1371/journal.pone.0140310); values rounded.